{"sequences": {"note": "The chains behind the UniProt entries cited, without tags or fusion partners.", "UniProt P03372, whole entry": "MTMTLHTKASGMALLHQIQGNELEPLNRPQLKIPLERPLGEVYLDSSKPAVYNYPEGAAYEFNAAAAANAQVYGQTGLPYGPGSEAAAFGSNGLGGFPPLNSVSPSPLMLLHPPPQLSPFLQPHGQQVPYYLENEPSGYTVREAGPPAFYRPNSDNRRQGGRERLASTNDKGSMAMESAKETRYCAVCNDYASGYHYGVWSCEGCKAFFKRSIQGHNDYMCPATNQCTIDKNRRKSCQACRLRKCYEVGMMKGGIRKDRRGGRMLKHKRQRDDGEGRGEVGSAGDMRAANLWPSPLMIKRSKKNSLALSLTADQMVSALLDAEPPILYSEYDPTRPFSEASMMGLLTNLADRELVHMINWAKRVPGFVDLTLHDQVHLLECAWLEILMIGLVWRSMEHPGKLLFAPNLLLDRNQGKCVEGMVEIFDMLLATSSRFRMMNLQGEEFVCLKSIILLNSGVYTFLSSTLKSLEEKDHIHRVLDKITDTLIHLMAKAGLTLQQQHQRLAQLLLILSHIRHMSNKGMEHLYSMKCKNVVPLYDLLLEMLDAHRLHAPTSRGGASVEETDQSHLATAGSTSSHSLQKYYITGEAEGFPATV"}, "source": "paper PMC2362355", "target": "oestrogen receptor (ER), recombinant human (human) (UniProt P03372)", "experiment": "EMSA", "conditions": "no ligand, less intense band than with oestradiol; 20 mM HEPES pH 7.9, 60 mM KCl, 5 mM MgCl2, 2 mM DTT, 10% glycerol, 100 ug (unit prefix not given) BSA, 380 fmol ER, 6 ng ERE, 20 ul; 20 C 20 min then 37 C 15 min; commercial protein; label: 32P end label (T4 PNK)", "note": "For at least one entry, the source does not settle the construct or the ends of the probe. The comparison behind a weaker result is the experiment's own reference, which may not be listed here.", "data": [{"sequence": "GATCCAGGTCACAGTGACCTGGGCCCG (double strand) [consensus ERE 27 bp]", "values": [{"measurement": "binding result", "value": "binds more weakly"}]}]}
